Reference: patent US20130203080A1 (UNIVERSITE MONTPELLIER 2, published 2013)
These are yes or no findings as the source states them, for the method shown. Some binding calls cover weakened binding; strength is not graded here.

Protein sequences, listed by entry. Tags and fused reporters are not part of them. Lines headed by an entry give the natural chain unless they say otherwise; changes in a name come on top.
UniProt P11166: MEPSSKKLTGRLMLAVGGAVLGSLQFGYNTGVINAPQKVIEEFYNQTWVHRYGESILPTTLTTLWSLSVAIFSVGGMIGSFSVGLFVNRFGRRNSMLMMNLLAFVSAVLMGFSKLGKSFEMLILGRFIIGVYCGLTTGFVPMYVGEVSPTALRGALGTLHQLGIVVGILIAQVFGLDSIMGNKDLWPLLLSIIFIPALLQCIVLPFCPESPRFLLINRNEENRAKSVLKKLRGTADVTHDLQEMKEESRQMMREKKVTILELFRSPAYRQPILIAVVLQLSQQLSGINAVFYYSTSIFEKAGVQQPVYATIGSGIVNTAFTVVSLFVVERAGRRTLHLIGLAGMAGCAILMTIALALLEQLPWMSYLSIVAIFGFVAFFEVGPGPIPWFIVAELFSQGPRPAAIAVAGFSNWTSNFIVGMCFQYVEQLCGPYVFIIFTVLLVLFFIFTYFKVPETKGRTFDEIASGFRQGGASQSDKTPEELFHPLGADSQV
UniProt P03383: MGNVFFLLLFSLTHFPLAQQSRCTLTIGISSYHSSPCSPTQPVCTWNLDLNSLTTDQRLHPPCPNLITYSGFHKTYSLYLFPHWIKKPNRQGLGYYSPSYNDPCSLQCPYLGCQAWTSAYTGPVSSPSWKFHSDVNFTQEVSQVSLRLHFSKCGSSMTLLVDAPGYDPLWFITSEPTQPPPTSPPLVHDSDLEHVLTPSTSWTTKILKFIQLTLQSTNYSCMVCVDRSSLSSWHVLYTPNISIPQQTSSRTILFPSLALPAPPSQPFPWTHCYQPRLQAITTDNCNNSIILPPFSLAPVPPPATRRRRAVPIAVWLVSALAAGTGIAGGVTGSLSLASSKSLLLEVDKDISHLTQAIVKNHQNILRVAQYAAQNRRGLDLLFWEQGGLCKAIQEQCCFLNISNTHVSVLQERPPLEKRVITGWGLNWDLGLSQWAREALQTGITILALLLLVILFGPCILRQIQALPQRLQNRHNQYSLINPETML
UniProt P03381: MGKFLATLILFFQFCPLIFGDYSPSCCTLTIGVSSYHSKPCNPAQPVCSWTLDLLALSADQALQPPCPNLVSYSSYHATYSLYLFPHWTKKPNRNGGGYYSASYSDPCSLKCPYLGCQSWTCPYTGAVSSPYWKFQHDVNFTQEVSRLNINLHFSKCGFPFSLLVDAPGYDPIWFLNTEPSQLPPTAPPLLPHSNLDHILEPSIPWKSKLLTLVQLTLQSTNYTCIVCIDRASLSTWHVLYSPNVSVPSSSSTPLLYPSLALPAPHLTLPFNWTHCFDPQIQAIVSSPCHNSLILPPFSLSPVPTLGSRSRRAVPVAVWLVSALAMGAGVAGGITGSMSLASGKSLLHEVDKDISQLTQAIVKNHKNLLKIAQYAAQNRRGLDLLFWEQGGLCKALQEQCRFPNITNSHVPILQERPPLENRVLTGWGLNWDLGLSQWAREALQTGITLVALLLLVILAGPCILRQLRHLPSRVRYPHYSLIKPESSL

How the values were obtained:
[1] = molecular target: T1, Glut1 on murine cells (CD4+ T cells; cerebellar cortex sections) (mouse) (UniProt P17809); assay: fluorescence staining of cerebellum cryosections of 16-22 day old mice with RBD-rFc
T1 sequence: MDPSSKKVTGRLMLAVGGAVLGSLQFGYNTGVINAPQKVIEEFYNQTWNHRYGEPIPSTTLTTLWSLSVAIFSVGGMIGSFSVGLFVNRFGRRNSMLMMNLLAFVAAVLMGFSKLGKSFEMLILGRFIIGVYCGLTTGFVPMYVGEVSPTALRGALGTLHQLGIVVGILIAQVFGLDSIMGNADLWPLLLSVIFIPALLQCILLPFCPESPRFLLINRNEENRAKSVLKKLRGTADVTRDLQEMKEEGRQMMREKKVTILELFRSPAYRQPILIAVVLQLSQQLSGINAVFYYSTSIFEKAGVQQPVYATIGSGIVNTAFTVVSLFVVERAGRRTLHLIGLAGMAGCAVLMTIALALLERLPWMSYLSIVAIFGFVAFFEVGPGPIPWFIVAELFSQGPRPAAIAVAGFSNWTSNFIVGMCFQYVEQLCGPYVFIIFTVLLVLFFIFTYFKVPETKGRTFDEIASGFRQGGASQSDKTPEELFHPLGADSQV

[2] = molecular target: T1, Glut1 on murine cells (CD4+ T cells; cerebellar cortex sections) (mouse); assay: fluorescence staining of mouse cerebellum cryosections with RBD-rFc, biotinylated anti-rabbit IgG, Streptavidin-Alexa488
[3] = molecular target: T1, Glut1 on murine cells (CD4+ T cells; cerebellar cortex sections) (mouse); assay: flow cytometry, RBD on murine CD4+ T cells polarised to Th0, Th1, Th2, Th17 or iTreg, day 4
[4] = molecular target: glucose transporter Glut1 on human cells (B cells, B-CLL cells, red blood cells, T cells) (human) (UniProt P11166); assay: flow cytometry, tagged RBD on human red blood cells
[5] = molecular target: glucose transporter Glut1 on human cells (B cells, B-CLL cells, red blood cells, T cells) (human) (UniProt P11166); assay: flow cytometry, tagged RBD on unstimulated and TCR-stimulated human T cells
[6] = molecular target: glucose transporter Glut1 on human cells (B cells, B-CLL cells, red blood cells, T cells) (human) (UniProt P11166); assay: flow cytometry, tagged RBD on CD19+ cells of healthy donors and B-CLL patients

## HTLV-RBD soluble RBD-rFc fusion protein (from UniProt P03383 19-224)
[1]
  binding: binds
[2]
  binding: binds

## Human T Leukaemia Virus-1 (HTLV1) Env receptor binding domain, soluble receptor binding ligand (from UniProt P03381 21-228)
[3]
  binding: binds

## Human T Leukaemia Virus-2 (HTLV2) Env receptor binding domain, tagged soluble receptor binding ligand (from UniProt P03383 19-224)
[4]
  binding: binds
[5]
  binding: binds
[6]
  binding: binds
